{"sequences": {"note": "Sequences of proteins named here, by UniProt entry; tags and fusion partners are left off.", "UniProt P11473, whole entry, looked up": "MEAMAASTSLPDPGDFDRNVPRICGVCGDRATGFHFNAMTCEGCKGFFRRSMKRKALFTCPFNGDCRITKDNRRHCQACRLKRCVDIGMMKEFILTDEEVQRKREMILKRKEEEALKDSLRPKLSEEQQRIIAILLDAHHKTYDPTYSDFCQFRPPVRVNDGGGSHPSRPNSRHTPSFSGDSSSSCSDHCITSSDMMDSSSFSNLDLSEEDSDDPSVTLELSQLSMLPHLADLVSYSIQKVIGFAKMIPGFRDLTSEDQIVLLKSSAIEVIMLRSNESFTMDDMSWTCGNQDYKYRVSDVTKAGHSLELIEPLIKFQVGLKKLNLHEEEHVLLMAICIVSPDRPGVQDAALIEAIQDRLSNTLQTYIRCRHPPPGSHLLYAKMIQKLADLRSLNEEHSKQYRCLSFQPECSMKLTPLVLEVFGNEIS"}, "source": "PubChem BioAssay AID504847", "about": "(National Center for Advancing Translational Sciences (NCATS), 2011)", "note": "“And” between values parts separate entries of the source, which are not always exact repeats. Equal values may be shown once. The whole screen tested about 400,000 compounds, of which about 3,700 (0.93%) were called active. Inconclusive means that the source gave no clear call. Such entries were picked first, then a sample of the others. Calls follow the shape of the dose curve; as a rule, active = well fitted inhibition curve with a large enough effect; inconclusive = small, poorly fitted or top-dose-only effect, or another doubt; inactive = no such curve, though single readings can be large or run the other way. Potencies of inconclusive entries are doubtful fits and often do not repeat. % is scaled to controls: 0 for no effect and ±100 for the full control effect; potency is read from the fitted curve at half-maximal effect."}
{"target": "Vitamin D3 receptor (Homo sapiens) (UniProt P11473)", "experiment": "Inhibitors of the vitamin D receptor (VDR): qHTS", "conditions": "VDR-SRC2-3 peptide fluorescence polarization, 2 h; max response, negative = inhibition: stronger effect = lower value", "method_in_brief": "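Compounds are added to VDR with labelled SRC2-3 coactivator peptide and held 2 h at room temperature. Inhibition of the VDR–peptide interaction is then read as a change in fluorescence polarization.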"}
{"molecule": "CN(C)c1ccc(S(=O)(=O)NCC(=O)OCC(=O)Nc2cc(Cl)cc(Cl)c2)cc1[N+](=O)[O-]", "Potency": "inconclusive: 70.8 µM [inhibitor, partial curve]"}
{"molecule": "COc1cc(C2=Nc3ccc(Br)cc3C(c3ccccc3)N2CC(=O)NN)cc(OC)c1OC", "note": "(stereo not drawn)", "Potency": "inconclusive: 79.4 µM [inhibitor, partial curve, poor fit]"}
{"molecule": "COC(=O)CSc1nc(C)cc(C)n1", "Potency": "inconclusive: 39.8 µM [inhibitor, single point]"}
{"molecule": "COC(=O)c1c(NC(=O)COc2ccc(Cl)cc2C)sc2c1CCCCC2", "Potency": "inconclusive: 89.1 µM [inhibitor, partial curve, poor fit]"}
{"molecule": "CSc1cccc(NC(=O)CC(c2ccc(F)cc2)N2Cc3ccccc3C2=O)c1", "note": "(stereo not drawn)", "max response, negative = inhibition": "inactive: 11.2%"}
{"molecule": "CN(C)S(=O)(=O)c1cccc(NC(=S)Nc2cccc3cnccc23)c1", "Potency": "inconclusive: 31.6 µM [inhibitor, partial curve, poor fit]"}
{"molecule": "O=C(O)c1cc(N2C(=O)C=CC2=O)cc(N2C(=O)C=CC2=O)c1", "Potency": "inconclusive: 7.08 µM [inhibitor, full curve, poor fit]"}
{"molecule": "c1ccc2c(c1)CCN2CCN1CCc2ccccc21", "max response, negative = inhibition": "inactive: 9.29%"}
{"molecule": "Cc1cc(C(=O)CN2C(=O)NC3(CCC(C)CC3)C2=O)c(C)n1C", "note": "(stereo not drawn)", "Potency": "inconclusive: 89.1 µM [inhibitor, partial curve, poor fit]"}
{"molecule": "Cc1ccccc1/C=C\\c1nc(O)c([N+](=O)[O-])c(=O)[nH]1", "Potency": "inconclusive: 39.8 µM [inhibitor, single point]"}
{"molecule": "O=C(COC(=O)c1ccc(S(=O)(=O)NCc2ccco2)cc1)Nc1ccc(Cl)cn1", "max response, negative = inhibition": "inactive: -23.6%"}
{"molecule": "O=c1[nH]c(Sc2ccc([N+](=O)[O-])cc2[N+](=O)[O-])nc2ccccc12", "Potency": "inconclusive: 56.2 µM [inhibitor, partial curve, poor fit]"}
{"molecule": "COC(=O)C1=C(C)N(Cc2ccc(C)cc2)C(=O)/C1=C\\c1cc(OC)c(OC)c(OC)c1", "Potency": "active: 50.1 µM"}
{"molecule": "O=C(CNc1ccccc1Cl)c1ccc(Br)cc1", "Potency": "inconclusive: 56.2 µM [inhibitor, partial curve, poor fit]"}
{"molecule": "FC(F)(F)c1ccccc1-c1nc(-n2ccnc2)c2ccccc2n1", "Potency": "active: 50.1 µM"}
{"molecule": "C[n+]1c(-c2ccccc2)cc2c(=Cc3ccccc3)c3ccccc3n21", "Potency": "inconclusive: 100 µM [inhibitor, single point]"}
{"molecule": "CCOc1ccc(CC(=O)Nc2sc(Cc3ccccc3)cc2C(N)=O)cc1OCC", "Potency": "inconclusive: 63.1 µM [inhibitor, partial curve, poor fit]"}
{"molecule": "Cn1cccc1Cc1nnc(SCC(=O)Nc2ccc(F)cc2)n1-c1ccc(F)cc1", "Potency": "inconclusive: 89.1 µM [inhibitor, single point]"}
{"molecule": "O=C1ON=C(c2ccc([N+](=O)[O-])cc2)/C1=C/c1ccccc1O", "Potency": "active: 79.4 µM"}
{"molecule": "Cn1c(=O)c(C(=O)CN2CCc3ccccc32)c(N)n(Cc2ccccc2)c1=O", "Potency": "inconclusive: 89.1 µM [inhibitor, single point]"}
{"molecule": "COc1ccc(Cn2nnc3ccccc32)cc1", "Potency": "inconclusive: 70.8 µM [inhibitor, partial curve, poor fit]"}
{"molecule": "O=S(=O)(Nc1ccc(O)c2ccccc12)c1cccs1", "Potency": "inconclusive: 15.8 µM [inhibitor, full curve]"}
{"molecule": "S=P(c1ccc(N2CCOCC2)cc1N1CCOCC1)(N1CCOCC1)N1CCOCC1", "Potency": "active: 79.4 µM"}
{"molecule": "O=S(=O)(NC(=S)c1ccccc1)c1ccc(F)cc1", "Potency": "inconclusive: 100 µM [inhibitor, partial curve, poor fit]"}
{"molecule": "CCc1c(C(=O)NNC(=S)Nc2ccc(S(=O)(=O)Nc3ncccn3)cc2)csc1C", "max response, negative = inhibition": "inactive: -4.01%"}
{"molecule": "CC(C)(CCCCCCCCCCC(C)(C)CC(=O)O)CC(=O)O", "Potency": "inconclusive: 35.5 µM [inhibitor, full curve]"}
{"molecule": "CCCCC(=O)Nc1cccc(NC(=S)NC(C)=O)c1", "Potency": "inconclusive: 112 µM [inhibitor, partial curve, poor fit]"}
{"molecule": "CN1CCc2c(sc3c2c(=O)n(-c2ccccc2)c2n[nH]c(=S)n32)C1", "max response, negative = inhibition": "inactive: -1.26%"}
{"molecule": "CC(=O)Nc1cccc(C(=O)N2CCN(S(=O)(=O)c3ccc(C4CCCCC4)cc3)CC2)c1", "max response, negative = inhibition": "inactive: -13.2%"}
{"molecule": "Cc1ccc(S(=O)(=O)N2CCCCC2)cc1C(=O)Nc1ccc(S(=O)(=O)Nc2ncccn2)cc1", "Potency": "inconclusive: 100 µM [inhibitor, partial curve, poor fit]"}
{"molecule": "COc1cc(/C=C/C(=O)N(Cc2ccccc2)c2ccccn2)cc(OC)c1OC", "Potency": "inconclusive: 89.1 µM [inhibitor, partial curve]"}
{"molecule": "O=C1C(=O)N(CCO)C(c2cccc(F)c2)/C1=C(\\O)c1ccc(Cl)cc1", "note": "(stereo not drawn)", "Potency": "inconclusive: 70.8 µM [inhibitor, single point]"}
{"molecule": "CC(=O)Nc1ccc(S(=O)(=O)N/N=C/c2ccc(C)o2)cc1", "max response, negative = inhibition": "inactive: -18.5%"}
{"molecule": "CC(=O)N(Cc1ccccc1)C1CC(=O)N(Cc2ccccc2)C1=O", "note": "(stereo not drawn)", "max response, negative = inhibition": "inactive: 2.59%"}
{"molecule": "O=Cc1c(NCCN2CCCC2)c2ccccc2[nH]c1=O", "max response, negative = inhibition": "inactive: -4.62%"}
{"molecule": "COc1ccccc1CNc1ncncc1-c1ccoc1", "Potency": "inconclusive: 28.2 µM [inhibitor, partial curve]"}
{"molecule": "CCOc1ccc2nc(N3CCC(C(=O)N4CCN(C5CCCCC5)CC4)CC3)sc2c1", "Potency": "inconclusive: 4.47 µM [inhibitor, full curve, poor fit]"}
{"molecule": "Cc1ccn2c(-c3csc(NCc4ccccc4)n3)c(C)nc2c1", "max response, negative = inhibition": "inactive: -8.48%"}
{"molecule": "COc1cc(/C=C2/C(=O)N(c3ccc([N+](=O)[O-])cc3)N=C2N2CCOCC2)ccc1O", "Potency": "inconclusive: 31.6 µM [inhibitor, partial curve, poor fit]"}
{"molecule": "O=C(Cn1cnc2sc3c(c2c1=O)CCCC3)NCC(=O)Nc1c(F)cc(F)cc1Br", "max response, negative = inhibition": "inactive: -14.2%"}
{"molecule": "CN(C)c1ccc(-c2ccc3ncnc(NC4CC4)c3c2)cc1", "Potency": "inconclusive: 35.5 µM [inhibitor, partial curve, poor fit]"}
{"molecule": "O=C(COC(=O)c1cc(Br)ccc1O)NNC(=O)c1ccc([N+](=O)[O-])cc1", "max response, negative = inhibition": "inactive: -3.14%"}
{"molecule": "Cc1cccc(Cn2c(C)c(C)c3cc(C(=O)NCCN4CCOCC4)ccc32)c1", "max response, negative = inhibition": "inactive: 10.4%"}
{"molecule": "COc1ccc(C(=O)Oc2ccc(F)cc2C(=O)/C=C/c2ccc(OC)c(OC)c2)cc1", "max response, negative = inhibition": "inactive: -29.7%"}
{"molecule": "Cc1ccc(NC(=O)CN2C(=S)NC(C)(C)CC2C)cc1Cl", "note": "(stereo not drawn)", "max response, negative = inhibition": "inactive: -17.2%"}
{"molecule": "N#Cc1nc(COc2ccccc2F)oc1NCc1ccc(F)cc1", "Potency": "inconclusive: 70.8 µM [inhibitor, partial curve, poor fit]"}
{"molecule": "N#CC(C#N)=Cc1cc2ccccc2nc1N1CCCCC1", "Potency": "active: 70.8 µM"}
{"molecule": "O=C1N(c2ccccc2)CCN1c1ccccc1", "max response, negative = inhibition": "inactive: 3.75%"}
{"molecule": "CCCC(=O)N(c1ccc2oc(=O)sc2c1)S(=O)(=O)c1ccccc1", "Potency": "inconclusive: 56.2 µM [inhibitor, partial curve, poor fit]"}
{"molecule": "COc1ccc(C2=NS(=O)(=O)N(C)C(C(=O)Nc3ccc4c(c3)OCO4)=C2)cc1OC", "Potency": "inconclusive: 70.8 µM [inhibitor, partial curve, poor fit]"}
{"molecule": "CCCc1c2c(cc3c(=O)cc(C(=O)OCC)oc13)CCCC2", "Potency": "inconclusive: 89.1 µM [inhibitor, single point]"}
{"molecule": "c1ccc(CNc2ncnc3c2ncn3Cc2ccccc2)cc1", "max response, negative = inhibition": "inactive: -18.1%"}
{"molecule": "CCOC(=O)c1sc(NC(=O)CSc2nnc(Cc3ccccc3)o2)c(C#N)c1C", "Potency": "active: 12.6 µM"}
{"molecule": "Cc1noc(C)c1-c1nc(NCc2cccs2)c2ccccc2n1", "Potency": "active: 44.7 µM"}
{"molecule": "N[C@H]1CONC1=O", "max response, negative = inhibition": "inactive: -9.02% and inactive: 0.372%"}
{"molecule": "CN1C(=O)NC2(O)C(=O)c3ccccc3C12O", "note": "(stereo not drawn)", "Potency": "inconclusive: 7.08 µM [inhibitor, single point]"}
{"molecule": "Cc1ccc(S(=O)(=O)Nc2ccccc2-c2ccccc2)cc1", "max response, negative = inhibition": "inactive: 0.966%"}
{"molecule": "COc1ccc(-n2c(-c3cccc(OC)c3)nc(=S)c3c2CCCC3)cc1", "Potency": "inconclusive: 28.2 µM [inhibitor, full curve, poor fit]"}
{"molecule": "N#C/C(=N\\Nc1ccc(S(=O)(=O)N2CCc3ccccc32)cc1)C(N)=S", "Potency": "inconclusive: 28.2 µM [inhibitor, single point]"}
{"molecule": "CN(C)C1=NC[C@H](Cc2ccccc2)N1CCC1CCCC1", "Potency": "inconclusive: 89.1 µM [inhibitor, single point]"}
{"molecule": "COc1ccccc1C1CCN(C(=O)c2cccs2)CC1", "max response, negative = inhibition": "inactive: -10.5%"}
{"molecule": "CCOCCc1nn2c(=O)cc(COC(=O)c3ccc4c(c3)OCO4)nc2s1", "max response, negative = inhibition": "inactive: 9.76%"}
{"molecule": "COc1ccc(Cl)cc1NC(=O)CN(C1CCCCC1)S(C)(=O)=O", "max response, negative = inhibition": "inactive: 3.26%"}
{"molecule": "COc1ccccc1C1CC(=O)Oc2cc(C)c(Cl)cc21", "note": "(stereo not drawn)", "Potency": "inconclusive: 25.1 µM [inhibitor, partial curve, poor fit]"}
{"molecule": "Cc1ccc(-c2cn3c(n2)sc2cc(C(=O)NC4CCCCCC4)ccc23)c(C)c1", "max response, negative = inhibition": "inactive: 14.1%"}
{"molecule": "Cc1cc(O)c2c(c1O)C(=O)c1c(O)cc(C)c(O)c1C2=O", "Potency": "inconclusive: 89.1 µM [inhibitor, single point]"}
{"molecule": "COc1ccc(C(=O)Cn2c(C)nc([N+](=O)[O-])c2Br)cc1", "Potency": "inconclusive: 50.1 µM [inhibitor, partial curve, poor fit]"}
{"molecule": "COC(=O)/C=C1\\N/C(=N\\c2nc(C)cc(C)n2)N(c2ccc(C)c(C)c2)C1=O", "Potency": "inconclusive: 100 µM [inhibitor, single point]"}
